# Experimental data published in PubChem BioAssay AID540256 (National Center for Advancing Translational Sciences (NCATS), 2011).
# Out of some 300,000 compounds screened, about 3,700 (1.2%) were called active. Where a call stands in place of a potency, no number is given. The shares of active, inactive and inconclusive entries below differ from those in the screen. Calls follow the shape of the full dose curve; tested in HEK293 cells. A potency beside an inconclusive call is a rough fit, not a confirmed value.
# Assay: qHTS for Inhibitors of binding or entry into cells for Lassa Virus; also: nearly all actives have a fitted effect of over 50% in size
# Settings: Lassa virus pseudotype entry inhibition, cell reporter; series mostly up to 37.9 µM
# Potency is read from the fitted curve at half-maximal effect.
row,SMILES,Potency
1,CC(=O)C1=NN(c2ccccc2)C(c2ccc3c(c2)OCO3)N1c1ccccc1 (stereo unspecified),inactive
2,COc1cc2c(cc1NC(=O)c1cccc([N+](=O)[O-])c1C)oc1ccccc12,inactive
3,CCOC(=O)c1c(C)oc2nc(C)nc(NCCc3ccc(OCC)cc3)c12,inactive
4,CC(C)(C)c1cc(C(c2cccnc2)N2CCN(CCO)CC2)cc(C(C)(C)C)c1O (stereo unspecified),"inconclusive: 29.1 µM [inhibitor, single point]"
5,Cc1ccc(-c2cc(C(=O)N3CCCCCC3)no2)cc1,"inconclusive: 15.8 µM [inhibitor, single point]"
6,CCCCOC(=O)C(C)Nc1n[nH]c(=O)[nH]c1=O (stereo unspecified),inactive
7,O=c1c2ccccc2sn1-c1ccc(S(=O)(=O)N2CCCC2)cc1,"inconclusive: 14.6 µM [inhibitor, partial curve]"
8,Cc1ccc(SCCNC(=O)CN(c2cccc(C)c2C)S(C)(=O)=O)cc1,"inconclusive: 7.94 µM [inhibitor, partial curve]"
9,CC1S/C(=N/N=C2CCCCC2)NC1=O (stereo unspecified),inactive
10,CC(C)(C)c1cc2ncnc(N3CCCCC3)c2s1,"inconclusive: 35.5 µM [inhibitor, single point]"
11,CC1(C)CC2CC(C)(CN2S(=O)(=O)c2ccc(C(=O)Nc3ccc(Cl)c(S(=O)(=O)N4CCOCC4)c3)cc2)C1 (stereo unspecified),"inconclusive: 22.4 µM [inhibitor, single point]"
12,COCCN(CCOC)Cc1c(O)ccc2c1O/C(=C\c1ccc(C)o1)C2=O,inactive
13,Clc1cccc(NCc2nnc(SCc3ccccc3Cl)o2)c1,"inconclusive: 11.2 µM [activator, partial curve, poor fit]"
14,COc1ccc(-c2nn(-c3ccccc3)cc2C(=O)Nc2nccs2)cc1,inactive
15,CCOCC(=O)Nc1nc2ccccc2s1,"inconclusive: 3.98 µM [activator, partial curve, poor fit]"
16,CCOC(=O)c1nnn(-c2nonc2N)c1-c1ccc(OCC)cc1,inactive
17,CCOC(=O)c1ccc(NC(=O)CCc2c(C)nc3cc(-c4ccc(OC)cc4OC)nn3c2C)cc1,"inconclusive: 10 µM [activator, partial curve]"
18,Cn1nnc2c[n+](CC(=O)c3ccc(Cl)cc3)cc(Br)c21,"inconclusive: 10 µM [inhibitor, partial curve, poor fit]"
19,CCOc1ccc(NC(=O)Cn2c(=O)nc(-c3ccccc3)c3ccccc32)cc1,inactive
20,COc1ccc(OC(=O)c2cc(-c3ccc4c(c3)OCCO4)on2)cc1,inactive
21,COC(=O)c1sc(NC(=S)NC(=O)c2cccc(C)c2)nc1C,inactive

# A draw from above in order of length of the SMILES, rising.
row,SMILES,Potency
9,CC1S/C(=N/N=C2CCCCC2)NC1=O (stereo unspecified),inactive
13,Clc1cccc(NCc2nnc(SCc3ccccc3Cl)o2)c1,"inconclusive: 11.2 µM [activator, partial curve, poor fit]"
16,CCOC(=O)c1nnn(-c2nonc2N)c1-c1ccc(OCC)cc1,inactive
